In PubChem BioAssay AID192 (DTP/NCI, 2004):
The list is a part of this screen's results and no random one: it gathers tests that were run many times, whatever their T/C, doses with no T/C, and many T/C values between a quarter and a half above the control. Other doses and runs of a compound stand elsewhere. T/C gives the treated animals as a percentage of the vehicle group. Some entries give survivors of the animals treated and no T/C: the source files T/C as zero there, which appears to mark a toxic dose or a test without result, not a measured value. Some survivor counts are full or nearly so, which does not show that the dose was tolerated: survival well below the control is almost never listed, so the zero probably covers shortened survival too. Survivors were counted at the toxicity check, usually on the fifth day, unless a day is given; later deaths do not show. Schedule codes are those of the source, taken here to give the interval after Q, in days (D) or hours (H), and the number of doses after X. Additions like (4×) count equal records among those shown. Some entries hold several experiments; their values stand side by side, smallest first. Some structures stand for samples that the source files as different forms (salt, stereo form or complex); doses refer to the form tested. Where survival is the endpoint, this PubChem deposit counts one and a half times the control or more as active, and values a quarter to a half above the control carry no call in these data; other NCI protocols may use other cut-offs. Some T/C values carry the count of animals alive at the toxicity check (mostly the fifth day); without a count, all were alive then.

Test system: BDF1 mice, B16 melanoma ip, median survival T/C
Assay: NCI In Vivo Anticancer Drug Screen. Data for tumor model B16 Melanoma (intraperitoneal) in B6D2F1 (BDF1) mice
Conditions: T/C endpoint: median survival time, higher T/C = longer survival
How it was run: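 Vehicle-treated animals serve as the reference (C); treated animals (T) are scored for survival or tumor size after tumor transplantation.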

[1] = dose: 25.0 mg/kg/injection, schedule: Q01DX009 (ip), vehicle: saline with Tween-80
[2] = dose: 50.0 mg/kg/injection, schedule: Q01DX009 (ip), vehicle: Klucel (hydroxypropylcellulose) (HPC)
[3] = dose: 100.0 mg/kg/injection, schedule: Q01DX009 (ip), vehicle: Klucel (hydroxypropylcellulose) (HPC)
[4] = dose: 50.0 mg/kg/injection, schedule: Q01DX009 (ip), vehicle: saline
[5] = dose: 12.5 mg/kg/injection, schedule: Q01DX009 (ip), vehicle: Klucel (hydroxypropylcellulose) (HPC)
[6] = dose: 25.0 mg/kg/injection, schedule: Q01DX009 (ip), vehicle: Klucel (hydroxypropylcellulose) (HPC)
[7] = dose: 12.5 mg/kg/injection, schedule: Q01DX009 (ip), vehicle: carboxymethylcellulose (CMC)
[8] = dose: 25.0 mg/kg/injection, schedule: Q01DX009 (ip), vehicle: carboxymethylcellulose (CMC)
[9] = dose: 400.0 mg/kg/injection, schedule: Q01DX009 (ip), vehicle: saline with Tween-80
[10] = dose: 200.0 mg/kg/injection, schedule: Q01DX009 (ip), vehicle: saline
[11] = dose: 25.0 mg/kg/injection, schedule: Q01DX009 (ip), vehicle: water

For `O=C1C2(Cl)C3(Cl)C4(Cl)C(Cl)(Cl)C5(Cl)[C@]3(Cl)C1(Cl)[C@]5(Cl)C24Cl` (some centres not stated), the T/C (dose: 12.5 mg/kg/injection, schedule: Q01DX009 (ip), vehicle: saline with Tween-80) was 137 % of control, the survivor count [1] was 10 of 10 and the survivor count [2] was 10 of 10. For the same compound, the survivor count (dose: 50.0 mg/kg/injection, schedule: Q01DX009 (ip), vehicle: saline with Tween-80) was 8 of 10 and the survivor count [3] was 4 of 10.

With `c1ccc(-c2nn(-c3ccccc3)[n+](-c3cccc4ccccc34)n2)cc1` the survivor count (dose: 8.0 mg/kg/injection, schedule: Q01DX009 (ip), vehicle: saline with Tween-80) was 6 of 10.

For `Oc1ccc(O)c(/C=N/NC(=S)NC2CC3CC2C2C=CCC32)c1` (configuration not stated), the survivor count (dose: 12.5 mg/kg/injection, schedule: Q01DX009 (ip), vehicle: olive oil, sesame oil, peanut oil) was 10 of 10 (2×), the survivor count (dose: 25.0 mg/kg/injection, schedule: Q01DX009 (ip), vehicle: olive oil, sesame oil, peanut oil) was 10 of 10 (2×) and the survivor count (dose: 50.0 mg/kg/injection, schedule: Q01DX009 (ip), vehicle: olive oil, sesame oil, peanut oil) was 10 of 10 (2×). For the same compound, the survivor count (dose: 100.0 mg/kg/injection, schedule: Q01DX009 (ip), vehicle: olive oil, sesame oil, peanut oil) was 10 of 10 (2×), the survivor count (dose: 200.0 mg/kg/injection, schedule: Q01DX009 (ip), vehicle: olive oil, sesame oil, peanut oil) was 10 of 10 (2×) and the survivor count (dose: 400.0 mg/kg/injection, schedule: Q01DX009 (ip), vehicle: olive oil, sesame oil, peanut oil) was 4 of 10 and 5 of 10.

For `CCNCCCN`, the survivor count [4] was 10 of 10 and the survivor count (dose: 100.0 mg/kg/injection, schedule: Q01DX009 (ip), vehicle: saline) was 10 of 10.

With `CS(=O)(=O)ON1C(=O)c2ccccc2C1=O` the survivor count [5] was 10 of 10 and the survivor count [6] was 10 of 10.

For `COc1ccc2cc3[n+](cc2c1OC)CCc1cc2c(cc1-3)OCO2`, the survivor count (dose: 0.75 mg/kg/injection, schedule: Q01DX009 (ip), vehicle: carboxymethylcellulose (CMC)) was 10 of 10, the survivor count (dose: 6.0 mg/kg/injection, schedule: Q01DX009 (ip), vehicle: carboxymethylcellulose (CMC)) was 10 of 10 and the survivor count (dose: 10.0 mg/kg/injection, schedule: Q01DX009 (ip), vehicle: Klucel (hydroxypropylcellulose) (HPC)) was 10 of 10. For the same compound, the T/C [7] was 136 % of control [9 of 10 alive], the survivor count [7] was 8 of 10 and the survivor count (dose: 20.0 mg/kg/injection, schedule: Q01DX009 (ip), vehicle: Klucel (hydroxypropylcellulose) (HPC)) was 9 of 10. The survivor count (dose: 20.0 mg/kg/injection, schedule: Q02DX005 (ip), vehicle: Klucel (hydroxypropylcellulose) (HPC)) was 10 of 10, the survivor count [6] was 6 of 10 and the T/C [8] was 131 % of control. The survivor count [8] was 1 of 10, the survivor count (dose: 40.0 mg/kg/injection, schedule: Q01DX009 (ip), vehicle: Klucel (hydroxypropylcellulose) (HPC)) was 0 of 10 and the survivor count (dose: 40.0 mg/kg/injection, schedule: Q02DX005 (ip), vehicle: Klucel (hydroxypropylcellulose) (HPC)) was 4 of 10. For the same compound, the survivor count (dose: 50.0 mg/kg/injection, schedule: Q01DX009 (ip), vehicle: carboxymethylcellulose (CMC)) was 0 of 10.

For `C=C1C(=O)OC2/C=C(\CO)C(OC(C)=O)CC(O)/C(C)=C/C(OC(=O)C(C)CC)C12` (configuration not stated), the T/C (dose: 0.78 mg/kg/injection, schedule: Q01DX009 (ip), vehicle: Klucel (hydroxypropylcellulose) (HPC)) was 125 % of control, the survivor count [5] was 10 of 10 and the survivor count [6] was 10 of 10. The survivor count [2] was 10 of 10 and the survivor count [3] was 10 of 10.

In the case of `CC1Cc2c(Cl)cc(C(=O)NC(Cc3ccccc3)C(=O)O)c(O)c2C(=O)O1` (configuration not stated), the T/C (dose: 1.0 mg/kg/injection, schedule: Q01DX009 (ip), vehicle: saline with Tween-80) is reported as 129 % of control [9 of 10 alive].

For `Cc1ccccc1N(CC1CO1)CC1CO1` (configuration not stated), the T/C [1] was 137 % of control, the survivor count (dose: 200.0 mg/kg/injection, schedule: Q01DX009 (ip), vehicle: saline with Tween-80) was 5 of 10 and the survivor count [9] was 0 of 10.

For `CN(C)CC(C(=O)Cc1ccccc1)c1ccccc1` (configuration not stated), the survivor count [10] was 0 of 10.

`COc1ccc(OC)c(/C=C/c2ccnc3ccccc23)c1` was tested, and the T/C (dose: 400.0 mg/kg/injection, schedule: Q01DX009 (ip), vehicle: saline sonified) was 126 % of control.

For `CCC(C)C(=O)OC1C(=O)OC2CC3C(C)=CC(=O)C(O)C3(C)C3C4(O)OCC23C1C(C)C4O` (configuration not stated), the T/C (dose: 0.7 mg/kg/injection, schedule: Q01DX009 (ip), vehicle: saline with Tween-80) was 136 % of control, the T/C (dose: 0.7 mg/kg/injection, schedule: Q01DX009 (ip), vehicle: saline) was 134 % of control and the T/C (dose: 1.4 mg/kg/injection, schedule: Q01DX009 (ip), vehicle: saline with Tween-80) was 140 % of control [9 of 10 alive]. For the same compound, the T/C (dose: 2.8 mg/kg/injection, schedule: Q01DX009 (ip), vehicle: saline) was 137 % of control.

For `CN1CCN(Cc2c(O)ccc3c4c(c(=O)oc23)CCCC4)CC1`, the survivor count (dose: 256.0 mg/kg/injection, schedule: Q01DX009 (ip), vehicle: Klucel (hydroxypropylcellulose) (HPC)) was 0 of 5.

`O=C(O)COc1ccc([N+](=O)[O-])cc1` was tested, and the survivor count [9] was 10 of 10.

In the case of `O=C1CCCC2C1C1(O)CCC2(O)c2cccc(O)c21` (configuration not stated), the survivor count [6] is reported as 10 of 10, the survivor count (dose: 40.0 mg/kg/injection, schedule: Q04DX003 (ip), vehicle: saline) is reported as 10 of 10 and the survivor count [2] is reported as 10 of 10.

`Cn1c(=O)c2[nH]c(Cc3cccc(O)c3)nc2n(C)c1=O` was tested, and the survivor count (dose: 12.5 mg/kg/injection, schedule: Q01DX009 (ip), vehicle: suspension in saline) was 10 of 10, the survivor count [6] was 10 of 10 and the survivor count (dose: 25.0 mg/kg/injection, schedule: Q01DX009 (ip), vehicle: suspension in saline) was 8 of 10. The survivor count [2] was 10 of 10, the survivor count [3] was 9 of 10 and the survivor count (dose: 200.0 mg/kg/injection, schedule: Q01DX009 (ip), vehicle: suspension in saline) was 10 of 10. The survivor count (dose: 400.0 mg/kg/injection, schedule: Q01DX009 (ip), vehicle: suspension in saline) was 10 of 10.

With `OCC1OC(n2cnc3cncnc32)C(O)C1O` (configuration not stated) the T/C (dose: 0.78 mg/kg/injection, schedule: Q01DX009 (ip), vehicle: saline) was 126 % of control, the T/C (dose: 1.56 mg/kg/injection, schedule: Q01DX009 (ip), vehicle: saline) was 127 % of control and the T/C (dose: 3.12 mg/kg/injection, schedule: Q01DX009 (ip), vehicle: saline) was 133 % of control. For the same compound, the T/C (dose: 12.5 mg/kg/injection, schedule: Q01DX009 (ip), vehicle: saline) was 135 % of control, the survivor count (dose: 25.0 mg/kg/injection, schedule: Q01DX009 (ip), vehicle: saline) was 10 of 10 and the survivor count [4] was 10 of 10.

With `COc1cccc2c1C(=O)c1c(O)c3c(c(O)c1C2=O)C[C@@](O)(C(=O)CN1CCN(C)CC1)C[C@@H]3OC1CC(N)C(O)C(C)O1` (some centres not stated) the T/C (dose: 6.25 mg/kg/injection, schedule: Q01DX009 (ip), vehicle: water) was 133 % of control, the T/C (dose: 12.5 mg/kg/injection, schedule: Q01DX009 (ip), vehicle: water) was 128 % of control and the T/C [11] was 139 % of control.

In the case of `O=C1OC(c2ccc([N+](=O)[O-])cc2)=N/C1=C\c1ccc(Cl)cc1`, the survivor count [3] is reported as 10 of 10, the survivor count (dose: 200.0 mg/kg/injection, schedule: Q01DX009 (ip), vehicle: Klucel (hydroxypropylcellulose) (HPC)) is reported as 10 of 10 and the survivor count (dose: 400.0 mg/kg/injection, schedule: Q01DX009 (ip), vehicle: Klucel (hydroxypropylcellulose) (HPC)) is reported as 10 of 10.

With `CNc1nc(N(C)C)nc(N(C)C)n1` the T/C [11] was 130 % of control, the survivor count [10] was 10 of 10 and the survivor count (dose: 200.0 mg/kg/injection, schedule: Q01DX009 (ip), vehicle: water) was 9 of 10 and 10 of 10.

For `CC1=CC(=O)C=CC1=Nc1ccc(N(C)C)cc1`, the survivor count (dose: 100.0 mg/kg/injection, schedule: Q01DX009 (ip), vehicle: saline with Tween-80) was 2 of 10.
